Source: the supplement of paper PMC10849652
Some of the results follow.

The chains behind the UniProt entries cited, without tags or fusion partners. Where a name states a change or a piece, a line headed by the entry shows the natural chain unless it says otherwise.
UniProt Q7Z769: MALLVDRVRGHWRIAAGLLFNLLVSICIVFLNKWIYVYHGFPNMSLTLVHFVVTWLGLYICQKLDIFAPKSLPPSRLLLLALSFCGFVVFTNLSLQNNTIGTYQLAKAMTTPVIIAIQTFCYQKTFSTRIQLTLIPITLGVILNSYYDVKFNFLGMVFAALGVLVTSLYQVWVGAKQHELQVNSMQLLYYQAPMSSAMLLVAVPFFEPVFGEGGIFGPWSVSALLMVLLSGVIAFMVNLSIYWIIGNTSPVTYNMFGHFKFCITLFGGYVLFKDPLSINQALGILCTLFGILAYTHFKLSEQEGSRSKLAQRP
UniProt P31641: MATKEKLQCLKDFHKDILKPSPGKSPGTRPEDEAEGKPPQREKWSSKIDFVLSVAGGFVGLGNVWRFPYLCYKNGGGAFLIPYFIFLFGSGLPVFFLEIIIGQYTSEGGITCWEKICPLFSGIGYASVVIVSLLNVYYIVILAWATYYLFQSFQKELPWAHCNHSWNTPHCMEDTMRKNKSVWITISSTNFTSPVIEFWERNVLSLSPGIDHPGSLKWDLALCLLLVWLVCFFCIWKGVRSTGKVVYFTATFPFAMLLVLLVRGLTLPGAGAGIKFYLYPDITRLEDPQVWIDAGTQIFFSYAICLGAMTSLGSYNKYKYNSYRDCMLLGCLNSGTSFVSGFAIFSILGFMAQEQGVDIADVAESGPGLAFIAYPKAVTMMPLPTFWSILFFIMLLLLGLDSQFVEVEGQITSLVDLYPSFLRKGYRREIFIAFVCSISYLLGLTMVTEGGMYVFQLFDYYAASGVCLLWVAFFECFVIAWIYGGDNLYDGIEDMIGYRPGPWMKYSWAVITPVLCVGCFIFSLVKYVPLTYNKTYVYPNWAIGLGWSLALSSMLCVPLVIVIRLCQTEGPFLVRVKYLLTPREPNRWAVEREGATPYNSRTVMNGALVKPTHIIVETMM
UniProt Q6NT16: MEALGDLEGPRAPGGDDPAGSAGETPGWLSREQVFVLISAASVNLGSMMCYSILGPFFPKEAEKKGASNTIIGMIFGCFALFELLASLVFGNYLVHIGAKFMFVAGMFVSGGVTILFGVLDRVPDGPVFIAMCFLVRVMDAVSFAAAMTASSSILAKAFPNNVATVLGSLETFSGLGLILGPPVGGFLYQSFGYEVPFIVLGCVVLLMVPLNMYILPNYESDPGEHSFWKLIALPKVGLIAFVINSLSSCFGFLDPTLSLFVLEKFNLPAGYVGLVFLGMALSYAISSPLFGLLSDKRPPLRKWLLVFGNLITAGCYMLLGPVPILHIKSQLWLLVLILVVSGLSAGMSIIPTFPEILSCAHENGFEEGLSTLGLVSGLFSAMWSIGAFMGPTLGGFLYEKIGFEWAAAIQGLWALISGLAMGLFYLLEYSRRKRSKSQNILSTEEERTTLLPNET
UniProt Q15758: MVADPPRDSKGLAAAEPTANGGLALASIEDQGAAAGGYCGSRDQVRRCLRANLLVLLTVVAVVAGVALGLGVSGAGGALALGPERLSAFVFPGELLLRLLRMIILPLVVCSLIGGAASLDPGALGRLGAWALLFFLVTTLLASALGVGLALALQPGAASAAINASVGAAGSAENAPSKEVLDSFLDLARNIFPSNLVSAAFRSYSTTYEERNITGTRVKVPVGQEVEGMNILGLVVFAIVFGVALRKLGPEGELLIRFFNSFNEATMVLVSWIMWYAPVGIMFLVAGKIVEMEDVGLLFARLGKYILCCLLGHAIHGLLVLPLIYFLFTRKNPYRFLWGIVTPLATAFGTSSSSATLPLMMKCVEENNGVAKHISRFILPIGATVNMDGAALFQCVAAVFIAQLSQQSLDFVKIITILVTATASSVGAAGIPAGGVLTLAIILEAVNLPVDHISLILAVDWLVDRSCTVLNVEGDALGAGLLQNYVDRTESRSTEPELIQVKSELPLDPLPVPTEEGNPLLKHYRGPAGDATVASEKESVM
UniProt Q8N357: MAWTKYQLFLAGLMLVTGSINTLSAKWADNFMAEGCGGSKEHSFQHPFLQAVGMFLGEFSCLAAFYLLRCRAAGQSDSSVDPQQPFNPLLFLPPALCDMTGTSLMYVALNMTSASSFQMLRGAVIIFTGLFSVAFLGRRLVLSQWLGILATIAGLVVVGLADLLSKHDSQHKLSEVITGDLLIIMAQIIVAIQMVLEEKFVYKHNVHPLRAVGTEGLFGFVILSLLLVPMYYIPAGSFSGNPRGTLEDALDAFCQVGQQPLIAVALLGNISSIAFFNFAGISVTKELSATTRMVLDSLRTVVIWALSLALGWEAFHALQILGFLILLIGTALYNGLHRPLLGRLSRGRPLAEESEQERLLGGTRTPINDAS
UniProt P78383: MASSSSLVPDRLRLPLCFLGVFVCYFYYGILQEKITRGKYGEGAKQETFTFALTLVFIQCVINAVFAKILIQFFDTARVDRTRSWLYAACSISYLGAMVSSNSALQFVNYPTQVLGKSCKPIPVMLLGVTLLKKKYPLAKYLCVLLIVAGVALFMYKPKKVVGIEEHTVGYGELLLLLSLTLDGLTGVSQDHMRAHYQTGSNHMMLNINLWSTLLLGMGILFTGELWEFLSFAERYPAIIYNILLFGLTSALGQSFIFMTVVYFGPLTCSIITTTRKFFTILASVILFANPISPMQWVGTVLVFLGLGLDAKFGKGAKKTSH
UniProt Q9H2X9: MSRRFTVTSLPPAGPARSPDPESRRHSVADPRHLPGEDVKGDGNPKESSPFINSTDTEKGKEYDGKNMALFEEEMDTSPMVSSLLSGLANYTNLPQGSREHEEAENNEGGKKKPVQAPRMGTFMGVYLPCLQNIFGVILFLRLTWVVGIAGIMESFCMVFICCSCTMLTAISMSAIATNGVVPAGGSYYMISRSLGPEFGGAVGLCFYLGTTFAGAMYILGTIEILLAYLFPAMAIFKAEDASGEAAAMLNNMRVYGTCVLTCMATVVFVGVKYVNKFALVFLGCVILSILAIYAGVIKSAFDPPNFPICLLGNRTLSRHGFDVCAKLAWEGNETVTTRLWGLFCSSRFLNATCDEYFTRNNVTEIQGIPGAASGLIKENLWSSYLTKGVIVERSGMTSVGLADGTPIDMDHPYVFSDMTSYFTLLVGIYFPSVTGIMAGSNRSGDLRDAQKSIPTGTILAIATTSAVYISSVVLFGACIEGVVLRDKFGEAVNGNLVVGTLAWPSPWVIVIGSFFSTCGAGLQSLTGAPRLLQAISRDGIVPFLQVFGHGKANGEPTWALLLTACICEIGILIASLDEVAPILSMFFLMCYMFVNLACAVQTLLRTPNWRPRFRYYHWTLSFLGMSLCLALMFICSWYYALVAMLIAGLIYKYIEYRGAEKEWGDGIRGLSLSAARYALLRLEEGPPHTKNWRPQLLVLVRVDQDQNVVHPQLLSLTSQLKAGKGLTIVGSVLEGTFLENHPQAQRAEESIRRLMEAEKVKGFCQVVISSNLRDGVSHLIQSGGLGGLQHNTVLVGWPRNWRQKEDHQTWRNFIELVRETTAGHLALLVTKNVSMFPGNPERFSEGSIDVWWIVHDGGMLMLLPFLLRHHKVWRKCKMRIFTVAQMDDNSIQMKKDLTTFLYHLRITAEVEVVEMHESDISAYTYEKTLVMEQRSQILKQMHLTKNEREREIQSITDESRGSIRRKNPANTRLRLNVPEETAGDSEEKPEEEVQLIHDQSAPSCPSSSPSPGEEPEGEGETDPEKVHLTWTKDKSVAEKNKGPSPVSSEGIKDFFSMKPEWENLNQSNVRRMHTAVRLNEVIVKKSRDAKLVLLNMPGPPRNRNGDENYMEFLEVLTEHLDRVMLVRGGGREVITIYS
UniProt Q8IWA5: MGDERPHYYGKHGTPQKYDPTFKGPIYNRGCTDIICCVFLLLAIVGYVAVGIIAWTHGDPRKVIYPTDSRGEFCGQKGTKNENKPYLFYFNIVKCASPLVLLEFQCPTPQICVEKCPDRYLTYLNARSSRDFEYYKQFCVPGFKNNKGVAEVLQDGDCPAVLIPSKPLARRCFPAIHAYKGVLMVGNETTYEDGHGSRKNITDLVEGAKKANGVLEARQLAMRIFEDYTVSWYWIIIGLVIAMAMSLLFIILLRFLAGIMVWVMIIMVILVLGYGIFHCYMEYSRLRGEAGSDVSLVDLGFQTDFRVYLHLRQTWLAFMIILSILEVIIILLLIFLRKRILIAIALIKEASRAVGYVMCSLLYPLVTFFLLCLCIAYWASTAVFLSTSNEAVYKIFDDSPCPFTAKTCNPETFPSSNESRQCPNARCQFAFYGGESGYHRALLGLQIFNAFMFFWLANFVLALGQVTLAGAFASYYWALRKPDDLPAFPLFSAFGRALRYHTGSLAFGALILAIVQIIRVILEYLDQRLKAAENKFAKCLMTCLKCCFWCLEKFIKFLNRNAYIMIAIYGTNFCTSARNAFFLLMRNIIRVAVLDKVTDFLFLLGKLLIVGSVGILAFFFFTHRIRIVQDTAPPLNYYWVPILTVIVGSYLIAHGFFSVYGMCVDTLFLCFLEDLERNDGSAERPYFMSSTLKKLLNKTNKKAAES
UniProt Q9BZJ4: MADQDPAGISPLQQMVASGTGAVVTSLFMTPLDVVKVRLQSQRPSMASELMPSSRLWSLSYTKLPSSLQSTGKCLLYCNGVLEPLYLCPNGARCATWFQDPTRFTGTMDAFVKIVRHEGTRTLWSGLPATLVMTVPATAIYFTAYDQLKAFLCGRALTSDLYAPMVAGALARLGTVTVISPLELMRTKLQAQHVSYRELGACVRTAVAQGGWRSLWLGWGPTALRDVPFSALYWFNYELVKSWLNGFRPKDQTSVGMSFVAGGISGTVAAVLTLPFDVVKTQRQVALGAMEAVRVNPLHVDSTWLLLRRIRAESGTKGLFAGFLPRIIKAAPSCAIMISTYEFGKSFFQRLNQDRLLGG
UniProt Q3KQZ1: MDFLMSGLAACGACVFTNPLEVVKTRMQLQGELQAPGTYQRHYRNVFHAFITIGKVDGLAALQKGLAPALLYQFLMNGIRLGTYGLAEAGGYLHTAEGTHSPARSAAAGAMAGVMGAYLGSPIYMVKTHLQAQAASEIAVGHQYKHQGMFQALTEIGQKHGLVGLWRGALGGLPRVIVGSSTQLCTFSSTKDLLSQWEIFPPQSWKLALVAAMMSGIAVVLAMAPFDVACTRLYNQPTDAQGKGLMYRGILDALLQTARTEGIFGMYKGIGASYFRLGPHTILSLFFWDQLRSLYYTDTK
UniProt Q96QE2: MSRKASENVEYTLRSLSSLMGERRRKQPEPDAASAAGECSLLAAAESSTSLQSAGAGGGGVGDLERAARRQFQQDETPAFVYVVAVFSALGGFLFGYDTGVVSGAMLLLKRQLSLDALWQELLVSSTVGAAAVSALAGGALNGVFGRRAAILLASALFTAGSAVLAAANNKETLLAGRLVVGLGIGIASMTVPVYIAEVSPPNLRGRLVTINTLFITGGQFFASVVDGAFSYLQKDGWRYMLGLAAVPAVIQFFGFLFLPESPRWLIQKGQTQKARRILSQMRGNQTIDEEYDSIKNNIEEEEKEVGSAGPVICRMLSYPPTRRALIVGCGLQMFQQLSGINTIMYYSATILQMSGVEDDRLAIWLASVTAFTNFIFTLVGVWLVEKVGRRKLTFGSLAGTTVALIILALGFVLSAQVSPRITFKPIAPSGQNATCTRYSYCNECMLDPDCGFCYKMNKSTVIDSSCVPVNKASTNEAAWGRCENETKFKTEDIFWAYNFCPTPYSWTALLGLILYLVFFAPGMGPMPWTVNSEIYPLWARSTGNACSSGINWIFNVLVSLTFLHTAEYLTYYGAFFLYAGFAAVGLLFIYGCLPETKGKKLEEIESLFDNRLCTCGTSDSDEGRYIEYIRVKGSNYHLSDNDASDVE
UniProt O95258: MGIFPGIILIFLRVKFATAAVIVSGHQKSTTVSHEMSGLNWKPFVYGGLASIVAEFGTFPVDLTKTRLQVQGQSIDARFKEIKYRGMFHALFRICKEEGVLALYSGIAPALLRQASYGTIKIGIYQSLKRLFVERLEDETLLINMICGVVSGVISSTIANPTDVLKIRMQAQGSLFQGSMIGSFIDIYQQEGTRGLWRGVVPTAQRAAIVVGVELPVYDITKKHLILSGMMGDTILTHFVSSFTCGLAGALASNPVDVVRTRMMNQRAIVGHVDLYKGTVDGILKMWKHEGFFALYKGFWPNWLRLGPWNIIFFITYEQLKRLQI
UniProt Q96A29: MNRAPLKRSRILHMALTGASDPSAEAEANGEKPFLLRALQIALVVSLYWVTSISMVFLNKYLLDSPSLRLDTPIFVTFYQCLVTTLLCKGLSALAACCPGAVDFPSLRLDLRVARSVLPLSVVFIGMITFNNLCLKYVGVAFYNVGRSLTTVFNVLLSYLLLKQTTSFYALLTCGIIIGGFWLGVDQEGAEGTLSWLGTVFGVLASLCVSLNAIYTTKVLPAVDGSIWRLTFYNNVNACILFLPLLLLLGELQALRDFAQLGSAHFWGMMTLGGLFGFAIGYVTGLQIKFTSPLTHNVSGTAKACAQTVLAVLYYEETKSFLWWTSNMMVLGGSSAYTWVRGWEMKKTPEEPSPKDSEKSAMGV

What was measured:
Test in all cases: log2 fold change, soluble protein after heating vs DMSO (PISA); higher = thermal stabilisation; K562 cells, 10 uM, 30 min; active = over 0.2 and 3.5 SD of the protein, either way, in both replicates (recomputed)
[1] = compound: CN1CCN(CCOc2cc(OC3CCOCC3)c3c(Nc4c(Cl)ccc5c4OCO5)ncnc3c2)CC1 [saracatinib]
Method in brief: (§1)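 K562 cells at 2×10^6 cells/mL were given 10 μM compound for 30 min. Aliquots then went through 3 min of heating across 48°C-58°C, were pooled, and were extracted in PBS with 0.5% NP-40 at 4°C, and the supernatant after 21,000xg for 90 min was quantified by TMTpro 16plex LC-MS/MS with channel sums equalised. Thermal stability relative to control samples, from duplicates, is given as log2 fold change.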

[2] = compound: CN1CCN(c2nc(C3=C(c4c[nH]c5ccccc45)C(=O)NC3=O)c3ccccc3n2)CC1 [sotrastaurin]
Method in brief: as §1

[3] = compound: CN1CCc2c(c3ccccc3n2Cc2ccc(C(=O)NO)cc2)C1 [Tubastatin A]
Method in brief: as §1

[4] = compound: CNC(=O)C1=CC=CC=C1NC2=NC(=NC=C2Cl)NC3=C(C=C(C=C3)N4CCOCC4)OC
Method in brief: as §1

[5] = compound: CNc1nc(-c2ccc3c(N)n[nH]c3c2)cc(N2C[C@@H](C(=O)NC3CCCCC3)CC[C@H]2C)n1
Method in brief: as §1

[6] = compound: CON(C)C(=O)N1N=C(c2cc(F)ccc2F)S[C@@]1(CCCN)c1ccccc1 [filanesib]
Method in brief: as §1

[7] = compound: COc1cc(C(=O)O)ccc1NC(=O)[C@@H]1N[C@@H](CC(C)(C)C)[C@](C#N)(c2ccc(Cl)cc2F)[C@H]1c1cccc(Cl)c1F [idasanutlin]
Method in brief: as §1

[8] = compound: COc1cc2nc(-c3cc(F)ccc3O)nc(N[C@@H]3CNC[C@H]3C(C)(C)O)c2cc1OC
Method in brief: as §1

[9] = compound: COc1cc2ncnc(Nc3ccc(F)c(Cl)c3)c2cc1OCCCN1CCOCC1 [gefitinib]
Method in brief: as §1

[10] = compound: CS(=O)(=O)CCNCc1ccc(-c2ccc3ncnc(Nc4ccc(OCc5cccc(F)c5)c(Cl)c4)c3c2)o1 [lapatinib]
Method in brief: as §1

[11] = compound: CNC(=O)c1ccc(Nc2ncc(C(F)(F)F)c(NCc3nccnc3N(C)S(C)(=O)=O)n2)cc1 [defactinib]
Method in brief: as §1

[12] = compound: CNCc1ccc(-c2[nH]c3cc(F)cc4c3c2CCNC4=O)cc1 [rucaparib]
Method in brief: as §1

[13] = compound: COC(=O)N[C@@H](C)CNc1nccc(-c2cn(C(C)C)nc2-c2cc(Cl)cc(NS(C)(=O)=O)c2F)n1 [encorafenib]
Method in brief: as §1

[14] = compound: COC(=O)[C@H](CCSC)NC(=O)C1=C(C=C(C=C1)NC[C@H](CS)N)C2=CC=CC=C2
Method in brief: as §1

[15] = compound: COC1=CC=C(C=C1)CN2C=CC3=C2C=C(C=C3)C(=O)NO
Method in brief: as §1

[16] = compound: CO[C@H]1C[C@@H]2CC[C@@H](C)[C@@](O)(O2)C(=O)C(=O)N2CCCC[C@H]2C(=O)O[C@H]([C@H](C)C[C@@H]2CC[C@H](n3cnnn3)[C@H](OC)C2)CC(=O)[C@H](C)/C=C(\C)[C@@H](O)[C@@H](OC)C(=O)[C@H](C)C[C@H](C)/C=C/C=C/C=C/1C [zotarolimus]
Method in brief: as §1

[17] = compound: COc1cc(Nc2ncc3c(n2)-c2ccc(Cl)cc2C(c2c(F)cccc2OC)=NC3)ccc1C(=O)O [alisertib]
Method in brief: as §1

[18] = compound: COc1cccc2cc(-c3nc([C@H]4CC[C@H](C(=O)O)CC4)n4ncnc(N)c34)[nH]c12
Method in brief: as §1

[19] = compound: CS(=O)(=O)N1CCN(Cc2cc3nc(-c4cccc5[nH]ncc45)nc(N4CCOCC4)c3s2)CC1 [pictilisib]
Method in brief: as §1

[20] = compound: CN1CC[C@H](c2c(O)cc(O)c3c(=O)cc(-c4ccccc4Cl)oc23)[C@H](O)C1 [alvocidib]
Method in brief: as §1

Measured: log2 fold change

SLC35E3 (UniProt Q7Z769)
inactive: [1] -0.012 | [2] 0.046 | [3] -0.123 | [4] -0.018 | [5] 0.075 | [6] -0.308 | [7] -0.123 | [8] 0.217 | [9] -0.109 | [10] -0.132

SLBP (UniProt Q14493)
inactive: [1] -0.083 | [2] -0.077 | [3] 0.117 | [4] 0.113 | [11] -0.128 | [12] -0.158 | [5] 0.02 | [13] 0.113 | [14] 0 | [15] -0.148 | [6] -0.035 | [16] 0.112 | [7] 0.224 | [17] -0.152 | [8] -0.199 | [9] 0.034 | [18] 0.077 | [10] 0.004 | [19] 0.05

SLC6A6 (UniProt P31641)
inactive: [1] -0.011 | [2] 0.041 | [3] -0.143 | [4] -0.029 | [11] -0.051 | [12] 0.065 | [5] -0.061 | [13] -0.051 | [14] -0.009 | [15] -0.1 | [6] -0.013 | [16] -0.017 | [7] -0.066 | [17] -0.031 | [8] -0.066 | [9] -0.044 | [18] 0.041 | [10] -0.012 | [19] 0.072

SLC3A2 (UniProt F5H867)
inactive: [1] 0.058 | [2] 0.148 | [3] 0.003 | [4] -0.139 | [5] -0.084 | [6] 0.171 | [17] -0.024 | [8] 0.133 | [9] 0.269 | [18] 0.01 | [10] -0.151 | [19] 0.17

SLC18B1 (UniProt Q6NT16)
inactive: [1] 0.021 | [2] 0.023 | [3] 0.04 | [4] 0.061 | [11] 0.094 | [12] -0.012 | [5] -0.071 | [13] 0.012 | [14] 0.056 | [15] 0.072 | [6] -0.094 | [16] -0.068 | [7] 0.083 | [17] 0.022 | [8] 0.058 | [9] 0.01 | [18] 0.087 | [10] -0.061 | [19] 0.067

SLC1A5 (UniProt Q15758)
inactive: [1] 0 | [2] 0.064 | [3] -0.023 | [4] -0.09 | [11] -0.01 | [12] -0.015 | [5] 0.033 | [13] -0.045 | [14] 0.058 | [15] -0.048 | [6] 0.071 | [16] -0.052 | [7] 0.031 | [17] -0.126 | [8] 0.058 | [9] 0.023 | [18] 0.095 | [10] -0.01 | [19] 0.024

SLC35F6 (UniProt Q8N357)
inactive: [1] 0.182 | [2] -0.071 | [3] -0.05 | [4] -0.025 | [11] -0.043 | [12] -0.004 | [5] -0.247 | [13] -0.042 | [14] 0.007 | [6] -0.001 | [16] 0.016 | [7] 0.02 | [17] -0.052 | [8] 0.033 | [9] 0 | [18] 0.037 | [10] -0.076

SLC35B1 isoform 2 (UniProt P78383)
inactive: [1] 0.036 | [2] -0.03 | [3] 0.037 | [4] -0.003 | [11] 0.026 | [12] -0.051 | [5] 0.011 | [13] 0.132 | [14] -0.127 | [15] -0.106 | [6] -0.037 | [16] -0.005 | [17] -0.232 | [9] -0.022 | [18] 0.129

SLC12A5 (UniProt Q9H2X9)
inactive: [1] -0.152 | [2] 0.053 | [3] -0.072 | [4] -0.007 | [11] 0.08 | [12] -0.138 | [5] 0.148 | [13] 0.044 | [14] 0.075 | [15] 0.323 | [6] -0.071 | [16] -0.076 | [7] 0.017 | [17] 0.299 | [8] -0.097 | [18] 0.124 | [10] 0.085

2 records drawn at random from the list so far, as already listed:
SLC35F6 (UniProt Q8N357)
inactive: [1] 0.182 | [2] -0.071 | [3] -0.05 | [4] -0.025 | [11] -0.043 | [12] -0.004 | [5] -0.247 | [13] -0.042 | [14] 0.007 | [6] -0.001 | [16] 0.016 | [7] 0.02 | [17] -0.052 | [8] 0.033 | [9] 0 | [18] 0.037 | [10] -0.076

SLC1A5 (UniProt Q15758)
inactive: [1] 0 | [2] 0.064 | [3] -0.023 | [4] -0.09 | [11] -0.01 | [12] -0.015 | [5] 0.033 | [13] -0.045 | [14] 0.058 | [15] -0.048 | [6] 0.071 | [16] -0.052 | [7] 0.031 | [17] -0.126 | [8] 0.058 | [9] 0.023 | [18] 0.095 | [10] -0.01 | [19] 0.024

Further results follow.

SLC44A2 isoform 2 (UniProt Q8IWA5)
inactive: [1] 0.104 | [2] 0.056 | [3] -0.053 | [4] -0.055 | [11] -0.137 | [12] -0.044 | [5] 0.043 | [13] -0.125 | [14] 0.02 | [15] 0.018 | [6] 0.048 | [16] -0.028 | [7] 0.026 | [17] -0.118 | [9] 0.002 | [18] 0.057 | [19] 0.13

SLC35A1 (UniProt P78382)
inactive: [1] 0.038 | [2] 0.015 | [3] -0.038 | [4] -0.016 | [11] -0.198 | [12] 0.048 | [5] -0.112 | [13] 0.043 | [14] -0.211 | [15] 0.048 | [6] -0.021 | [16] -0.138 | [7] -0.051 | [17] -0.063 | [8] -0.097 | [9] 0.06 | [18] 0.06 | [10] -0.028

SLC25A39 (UniProt Q9BZJ4)
inactive: [1] 0.107 | [2] -0.076 | [3] -0.18 | [4] -0.118 | [11] -0.044 | [12] -0.01 | [5] 0.015 | [13] 0.005 | [14] 0.041 | [15] -0.069 | [6] -0.255 | [16] 0.073 | [7] -0.115 | [17] 0.123 | [8] -0.49 | [9] -0.344 | [18] 0.224 | [10] -0.044 | [19] -0.072

SLC25A35 (UniProt Q3KQZ1)
inactive: [1] 0.095 | [20] -0.036 | [3] -0.03 | [4] -0.065 | [11] -0.089 | [12] -0.134 | [5] 0.013 | [13] 0.082 | [14] 0.039 | [15] -0.207 | [16] 0.006 | [7] 0.002 | [8] 0.048 | [10] -0.212 | [19] 0.15

SLC2A13 (UniProt Q96QE2)
inactive: [1] 0.062 | [2] -0.018 | [20] -0.007 | [3] -0.001 | [4] 0.085 | [11] -0.093 | [12] 0.277 | [5] 0.033 | [13] -0.034 | [14] 0.025 | [6] -0.055 | [16] -0.01 | [7] 0.045 | [8] 0.081 | [10] -0.052 | [19] 0.152

SLC25A4 (UniProt P12235)
inactive: [1] -0.022 | [2] 0.029 | [3] -0.138 | [4] 0.044 | [11] 0.012 | [12] -0.061 | [5] -0.026 | [13] -0.001 | [14] 0.019 | [15] -0.012 | [6] -0.024 | [16] -0.018 | [7] 0.003 | [17] 0.014 | [8] 0.039 | [9] 0.006 | [18] -0.012 | [10] -0.026 | [19] 0.115

SLC30A7 (UniProt Q8NEW0)
inactive: [1] 0.077 | [2] 0.101 | [3] -0.107 | [4] 0.016 | [11] -0.051 | [12] 0.02 | [5] -0.026 | [13] 0.059 | [14] 0.029 | [15] -0.105 | [6] -0.086 | [16] -0.025 | [7] -0.121 | [17] -0.019 | [8] 0.088 | [9] 0.017 | [18] 0.184 | [10] -0.013 | [19] 0.028

SLC25A14 isoform 3 (UniProt O95258)
inactive: [1] 0.103 | [20] -0.119 | [3] -0.017 | [4] -0.015 | [11] 0.019 | [12] -0.129 | [5] -0.006 | [13] 0.014 | [14] -0.007 | [15] 0.002 | [16] 0.086 | [7] -0.111 | [17] 0.116 | [8] 0.009 | [9] 0.109 | [18] 0.106 | [10] -0.006 | [19] 0.071

SLC35C1 (UniProt Q96A29)
inactive: [1] 0.009 | [20] -0.02 | [3] -0.032 | [4] -0.09 | [11] -0.011 | [12] 0.057 | [5] -0.071 | [13] -0.114 | [14] -0.047 | [15] 0.001 | [16] -0.056 | [7] 0.002 | [8] 0.068 | [9] -0.042 | [10] -0.111 | [19] -0.001
